Our source for the binding values is paper PMC7026398, “Structural and functional insight into the effect of AFF4 dimerization on activation of HIV-1 proviral transcription” (Cell Discovery, 2020).

These are yes or no findings as the source states them, for the method shown.

The target in assay [1] is AFF1-THD F1063A+Y1145A+V1146A+V1152A (UniProt P51825). Briefly: AUC; sedimentation velocity, 20 °C, 50,000 rpm, 25 mM Tris pH 8.0, 150 mM NaCl, 2 mM DTT; self-association, dimer or monomer; both purified.
The target is the same in assay [2]. As to the kind of experiment: SEC; analytical gel filtration, Superdex 75 10/300 increase, 25 mM Tris pH 8.0, 150 mM NaCl, 2 mM DTT; 6 mg/ml, 100 μl injected; self-association, dimer or monomer by elution volume; both purified. Background: SEC sorts molecules by how far they enter the pores of the column.

B1: AFF1-THD F1063A+Y1145A+V1146A+V1152A (domain or fragment, UniProt P51825 953-1210)
chain: GKPQVKFDKQQADLHMREAKKMKQKAELMTDRVGKAFKYLEAVLSFIECGIATESESQSSKSAYSVYSETVDLIKFIMSLKSFSDATAPTQEKIFAVLCMRCQSILNMAMARCKKDIAIKYSRTLNKHFESSSKVAQAPSPCIASTGTPSPLSPMPSPASSVGSQSSAGSVGSSGVAATISTPVTIQNMTSSAATITSHALTAFDLWEQAEALTRKNKEFFARLSTNVCTLALNSSLVDLVHYTRQGFQQLQELTKTP
Turning to B1, the figures for the binding result in assay [1] and in assay [2] were “no binding” and “no binding (tested: 6 mg/ml injected)”, respectively.
